Measurements reported in the supplement of paper PMC10849652.
Some of the results follow.

Chains of the proteins cited; added tags and fusions are not shown. Lines headed by an entry give the natural chain unless they say otherwise; changes in a name come on top.
UniProt Q9Y680: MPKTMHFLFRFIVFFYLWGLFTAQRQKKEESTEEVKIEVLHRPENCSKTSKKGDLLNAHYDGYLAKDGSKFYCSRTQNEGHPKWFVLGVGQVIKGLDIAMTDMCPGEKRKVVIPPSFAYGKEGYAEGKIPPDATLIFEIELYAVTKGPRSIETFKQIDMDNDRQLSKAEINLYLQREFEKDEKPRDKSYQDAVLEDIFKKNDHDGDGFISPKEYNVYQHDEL
UniProt Q5HYJ3: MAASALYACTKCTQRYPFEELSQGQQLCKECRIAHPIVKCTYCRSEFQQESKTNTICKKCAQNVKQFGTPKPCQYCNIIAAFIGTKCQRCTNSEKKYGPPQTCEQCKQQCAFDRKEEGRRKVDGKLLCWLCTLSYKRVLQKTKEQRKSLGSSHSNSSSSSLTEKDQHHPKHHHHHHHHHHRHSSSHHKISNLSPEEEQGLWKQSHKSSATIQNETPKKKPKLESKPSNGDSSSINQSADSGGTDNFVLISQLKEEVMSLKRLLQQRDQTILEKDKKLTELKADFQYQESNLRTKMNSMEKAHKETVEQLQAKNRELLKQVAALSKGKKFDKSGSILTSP
UniProt Q5T1M5: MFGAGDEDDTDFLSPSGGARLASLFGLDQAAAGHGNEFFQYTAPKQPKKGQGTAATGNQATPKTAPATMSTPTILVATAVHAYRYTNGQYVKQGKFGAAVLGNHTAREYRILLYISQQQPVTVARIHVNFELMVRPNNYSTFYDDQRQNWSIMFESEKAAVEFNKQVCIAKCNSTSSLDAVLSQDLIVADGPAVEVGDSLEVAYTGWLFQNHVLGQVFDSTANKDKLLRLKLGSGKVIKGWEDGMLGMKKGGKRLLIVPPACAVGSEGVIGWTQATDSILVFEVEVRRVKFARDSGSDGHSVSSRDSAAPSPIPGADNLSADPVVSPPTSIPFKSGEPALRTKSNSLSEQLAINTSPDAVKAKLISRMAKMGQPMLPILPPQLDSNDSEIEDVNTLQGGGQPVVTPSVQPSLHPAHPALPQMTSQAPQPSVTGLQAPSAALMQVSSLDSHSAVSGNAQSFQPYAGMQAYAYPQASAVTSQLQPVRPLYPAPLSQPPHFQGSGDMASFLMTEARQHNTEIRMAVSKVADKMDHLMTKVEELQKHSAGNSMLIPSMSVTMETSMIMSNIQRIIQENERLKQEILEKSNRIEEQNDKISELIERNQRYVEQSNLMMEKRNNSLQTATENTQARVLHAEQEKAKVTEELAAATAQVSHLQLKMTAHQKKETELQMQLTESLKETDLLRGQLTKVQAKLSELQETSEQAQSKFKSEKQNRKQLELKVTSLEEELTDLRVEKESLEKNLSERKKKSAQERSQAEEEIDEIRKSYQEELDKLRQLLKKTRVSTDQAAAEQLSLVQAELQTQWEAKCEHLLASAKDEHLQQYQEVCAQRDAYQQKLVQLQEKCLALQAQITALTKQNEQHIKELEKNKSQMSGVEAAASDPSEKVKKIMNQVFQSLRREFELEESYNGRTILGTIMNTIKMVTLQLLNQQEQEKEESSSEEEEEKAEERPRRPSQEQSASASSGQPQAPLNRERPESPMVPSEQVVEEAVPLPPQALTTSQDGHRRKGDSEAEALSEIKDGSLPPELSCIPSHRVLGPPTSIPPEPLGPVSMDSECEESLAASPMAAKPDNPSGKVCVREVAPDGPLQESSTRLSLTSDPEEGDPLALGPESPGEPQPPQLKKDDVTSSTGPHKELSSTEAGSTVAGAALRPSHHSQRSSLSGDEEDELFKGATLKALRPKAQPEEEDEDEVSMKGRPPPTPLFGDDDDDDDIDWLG
UniProt Q00688: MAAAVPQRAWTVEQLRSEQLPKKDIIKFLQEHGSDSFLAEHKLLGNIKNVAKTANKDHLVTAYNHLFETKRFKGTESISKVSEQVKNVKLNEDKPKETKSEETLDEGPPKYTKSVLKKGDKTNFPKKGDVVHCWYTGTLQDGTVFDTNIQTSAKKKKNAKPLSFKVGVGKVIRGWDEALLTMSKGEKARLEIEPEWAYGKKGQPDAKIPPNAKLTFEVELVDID
UniProt Q9Y3I1: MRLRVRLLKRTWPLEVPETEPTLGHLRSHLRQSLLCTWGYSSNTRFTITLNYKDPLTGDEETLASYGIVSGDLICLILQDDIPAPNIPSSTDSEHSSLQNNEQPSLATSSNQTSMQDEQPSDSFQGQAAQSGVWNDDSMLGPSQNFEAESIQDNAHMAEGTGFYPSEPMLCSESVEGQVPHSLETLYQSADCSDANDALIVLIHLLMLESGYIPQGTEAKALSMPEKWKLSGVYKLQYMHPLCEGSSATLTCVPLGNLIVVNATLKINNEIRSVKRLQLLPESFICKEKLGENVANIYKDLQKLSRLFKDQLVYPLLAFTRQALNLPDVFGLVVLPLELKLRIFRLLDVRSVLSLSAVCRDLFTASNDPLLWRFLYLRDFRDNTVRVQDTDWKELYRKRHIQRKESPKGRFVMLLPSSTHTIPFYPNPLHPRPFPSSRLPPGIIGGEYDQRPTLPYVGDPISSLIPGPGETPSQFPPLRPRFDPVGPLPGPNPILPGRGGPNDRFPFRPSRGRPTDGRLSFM
UniProt Q6P4F2: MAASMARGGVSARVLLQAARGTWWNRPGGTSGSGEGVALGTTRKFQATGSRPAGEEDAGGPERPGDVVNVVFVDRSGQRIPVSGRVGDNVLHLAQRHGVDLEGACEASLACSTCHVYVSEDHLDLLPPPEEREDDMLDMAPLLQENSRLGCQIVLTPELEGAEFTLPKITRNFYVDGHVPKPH
UniProt O95363: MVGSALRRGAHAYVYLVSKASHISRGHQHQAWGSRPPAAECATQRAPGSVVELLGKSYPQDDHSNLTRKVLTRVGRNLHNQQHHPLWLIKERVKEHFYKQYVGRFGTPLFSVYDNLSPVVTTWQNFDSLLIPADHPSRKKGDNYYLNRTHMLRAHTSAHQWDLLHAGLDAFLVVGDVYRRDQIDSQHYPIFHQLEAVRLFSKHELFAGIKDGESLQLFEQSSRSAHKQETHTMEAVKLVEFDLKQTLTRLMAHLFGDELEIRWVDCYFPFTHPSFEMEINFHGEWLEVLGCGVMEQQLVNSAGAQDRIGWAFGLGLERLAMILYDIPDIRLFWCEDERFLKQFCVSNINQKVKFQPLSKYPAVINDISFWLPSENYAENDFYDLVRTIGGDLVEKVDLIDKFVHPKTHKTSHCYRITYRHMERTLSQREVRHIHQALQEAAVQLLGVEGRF
UniProt Q8TB52: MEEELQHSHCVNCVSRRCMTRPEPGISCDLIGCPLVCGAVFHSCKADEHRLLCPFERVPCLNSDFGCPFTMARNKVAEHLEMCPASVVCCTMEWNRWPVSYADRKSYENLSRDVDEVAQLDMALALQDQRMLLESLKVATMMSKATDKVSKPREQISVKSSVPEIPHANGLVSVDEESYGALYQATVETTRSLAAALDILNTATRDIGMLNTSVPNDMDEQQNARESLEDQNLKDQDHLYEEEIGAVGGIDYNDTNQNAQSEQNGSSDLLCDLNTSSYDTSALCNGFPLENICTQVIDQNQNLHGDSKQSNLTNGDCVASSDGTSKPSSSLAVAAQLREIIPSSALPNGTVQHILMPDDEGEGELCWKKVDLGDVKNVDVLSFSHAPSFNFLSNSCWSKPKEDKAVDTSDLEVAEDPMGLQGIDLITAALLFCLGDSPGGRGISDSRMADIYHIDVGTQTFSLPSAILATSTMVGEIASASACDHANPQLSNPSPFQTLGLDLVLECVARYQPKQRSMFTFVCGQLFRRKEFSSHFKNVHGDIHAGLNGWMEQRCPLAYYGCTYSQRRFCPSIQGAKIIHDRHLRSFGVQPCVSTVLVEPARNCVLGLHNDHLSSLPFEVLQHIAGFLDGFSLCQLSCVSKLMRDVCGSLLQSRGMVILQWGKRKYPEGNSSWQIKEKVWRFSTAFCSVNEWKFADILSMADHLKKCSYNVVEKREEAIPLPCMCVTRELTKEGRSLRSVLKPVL
UniProt A6NHQ2: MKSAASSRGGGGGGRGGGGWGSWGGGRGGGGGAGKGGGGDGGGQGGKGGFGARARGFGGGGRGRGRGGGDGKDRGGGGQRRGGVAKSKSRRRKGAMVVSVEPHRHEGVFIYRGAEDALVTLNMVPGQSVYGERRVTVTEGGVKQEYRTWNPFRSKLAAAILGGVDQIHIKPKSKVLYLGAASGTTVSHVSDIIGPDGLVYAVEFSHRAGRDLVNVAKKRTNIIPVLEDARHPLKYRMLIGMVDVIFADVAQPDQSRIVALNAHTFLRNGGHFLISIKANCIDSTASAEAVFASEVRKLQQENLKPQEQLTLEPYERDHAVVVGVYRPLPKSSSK
UniProt Q9UK99: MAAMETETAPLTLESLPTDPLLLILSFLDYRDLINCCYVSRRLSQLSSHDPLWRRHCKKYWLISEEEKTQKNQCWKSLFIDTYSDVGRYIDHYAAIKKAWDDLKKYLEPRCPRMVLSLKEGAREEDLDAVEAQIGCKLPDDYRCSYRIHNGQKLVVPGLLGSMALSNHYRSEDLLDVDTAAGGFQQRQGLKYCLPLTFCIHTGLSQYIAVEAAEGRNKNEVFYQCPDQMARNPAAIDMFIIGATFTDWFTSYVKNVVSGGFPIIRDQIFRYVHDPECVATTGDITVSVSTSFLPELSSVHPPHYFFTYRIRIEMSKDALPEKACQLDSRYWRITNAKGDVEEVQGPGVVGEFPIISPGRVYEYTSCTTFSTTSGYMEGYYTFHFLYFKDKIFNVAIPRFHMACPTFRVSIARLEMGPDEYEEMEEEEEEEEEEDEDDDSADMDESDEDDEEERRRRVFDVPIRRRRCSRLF
UniProt Q9HA64: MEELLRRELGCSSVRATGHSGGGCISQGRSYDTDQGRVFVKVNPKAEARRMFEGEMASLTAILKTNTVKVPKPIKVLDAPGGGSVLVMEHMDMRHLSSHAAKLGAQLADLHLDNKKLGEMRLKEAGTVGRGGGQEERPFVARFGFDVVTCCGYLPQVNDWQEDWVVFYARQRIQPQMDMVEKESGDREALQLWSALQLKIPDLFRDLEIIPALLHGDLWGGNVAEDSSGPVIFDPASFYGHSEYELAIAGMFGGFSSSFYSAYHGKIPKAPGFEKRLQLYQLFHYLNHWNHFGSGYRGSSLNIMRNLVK
UniProt Q9Y5Y0: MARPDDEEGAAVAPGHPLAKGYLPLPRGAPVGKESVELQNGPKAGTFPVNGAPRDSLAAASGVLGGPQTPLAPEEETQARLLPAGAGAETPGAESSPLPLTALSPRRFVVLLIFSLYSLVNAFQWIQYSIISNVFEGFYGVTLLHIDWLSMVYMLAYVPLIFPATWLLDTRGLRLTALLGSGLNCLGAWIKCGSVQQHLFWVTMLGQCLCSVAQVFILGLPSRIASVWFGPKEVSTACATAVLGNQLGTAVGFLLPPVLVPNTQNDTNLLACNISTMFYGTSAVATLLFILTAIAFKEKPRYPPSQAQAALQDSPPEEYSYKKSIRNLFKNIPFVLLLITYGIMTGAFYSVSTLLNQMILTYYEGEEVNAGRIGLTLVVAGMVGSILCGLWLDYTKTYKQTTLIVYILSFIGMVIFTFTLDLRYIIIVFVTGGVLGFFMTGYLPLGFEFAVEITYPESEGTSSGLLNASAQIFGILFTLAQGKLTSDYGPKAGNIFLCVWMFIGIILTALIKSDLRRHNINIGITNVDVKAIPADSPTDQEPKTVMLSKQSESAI
UniProt Q9NWM8: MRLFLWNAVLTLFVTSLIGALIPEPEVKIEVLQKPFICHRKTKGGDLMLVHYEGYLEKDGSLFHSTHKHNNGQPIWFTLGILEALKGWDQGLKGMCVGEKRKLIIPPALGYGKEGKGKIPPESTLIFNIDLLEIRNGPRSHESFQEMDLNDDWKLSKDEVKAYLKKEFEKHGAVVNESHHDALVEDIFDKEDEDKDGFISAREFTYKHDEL
UniProt Q92913: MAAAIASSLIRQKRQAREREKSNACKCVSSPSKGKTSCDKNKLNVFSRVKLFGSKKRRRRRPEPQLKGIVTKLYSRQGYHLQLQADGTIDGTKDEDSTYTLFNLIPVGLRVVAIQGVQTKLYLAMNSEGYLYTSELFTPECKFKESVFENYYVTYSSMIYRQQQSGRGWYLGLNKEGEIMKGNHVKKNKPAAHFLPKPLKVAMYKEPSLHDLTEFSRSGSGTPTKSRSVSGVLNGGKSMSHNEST
UniProt P26885: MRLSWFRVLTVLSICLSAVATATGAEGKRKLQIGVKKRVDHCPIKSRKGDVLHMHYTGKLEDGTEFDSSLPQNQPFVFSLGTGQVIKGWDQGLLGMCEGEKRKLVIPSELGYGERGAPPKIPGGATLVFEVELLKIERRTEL
UniProt Q9Y3D6: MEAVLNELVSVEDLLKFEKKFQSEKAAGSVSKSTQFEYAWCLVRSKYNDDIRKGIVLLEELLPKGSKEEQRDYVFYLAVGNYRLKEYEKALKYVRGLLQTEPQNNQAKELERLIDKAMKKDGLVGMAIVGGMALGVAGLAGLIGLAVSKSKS
UniProt Q92520: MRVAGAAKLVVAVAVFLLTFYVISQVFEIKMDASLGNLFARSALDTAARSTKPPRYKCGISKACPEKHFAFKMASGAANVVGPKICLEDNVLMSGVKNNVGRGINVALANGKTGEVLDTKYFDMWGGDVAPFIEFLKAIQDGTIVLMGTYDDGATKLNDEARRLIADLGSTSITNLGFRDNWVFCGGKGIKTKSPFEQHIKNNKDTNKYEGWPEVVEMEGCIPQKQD

What follows are targets tested with Cc1ncc(-c2ccnc(Nc3ccc(S(C)(=O)=O)cc3)n2)n1C(C)C (assay: log2 fold change, soluble protein after heating vs DMSO (PISA); higher = thermal stabilisation; K562 cells, 10 uM, 30 min; active = over 0.2 and 3.5 SD of the protein, either way, in both replicates (recomputed)).
In short: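 Values are thermal stability changes relative to control samples and are taken from duplicates. They are stated as log2 fold changes. Before quantification by TMTpro 16plex LC-MS/MS with equalised channel sums, K562 cells at 2×10^6 cells/mL were treated with 10 μM compound for 30 min, heated in aliquots for 3 min across 48°C-58°C, pooled, extracted in PBS with 0.5% NP-40 at 4°C, and centrifuged at 21,000xg for 90 min to give the soluble supernatant.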

log2 fold change, inactive:
FBXO5 (UniProt Q9UKT4) -0.003, FEM1B (UniProt Q9UK73) -0.028, FKBP7 (UniProt Q9Y680) 0, FAM76B (UniProt Q5HYJ3) -0.02, FIP1L1 (UniProt Q6UN15) -0.021, FBXO22 (UniProt Q8NEZ5) 0.024, FAM91A1 (UniProt Q658Y4) 0.01, FKBP15 (UniProt Q5T1M5) -0.064, FKBP3 (UniProt Q00688) 0.029, FBXO7 (UniProt Q9Y3I1) 0, FDX2 (UniProt Q6P4F2) -0.048, FDFT1 (UniProt P37268) -0.019, FBXL20 (UniProt Q96IG2) -0.02, FKBPL (UniProt Q9UIM3) 0.002, FARS2 (UniProt O95363) -0.097, FBXO30 (UniProt Q8TB52) 0.034, FHL2 (UniProt Q14192) -0.009, FECH isoform 2 (UniProt P22830) 0.134, FAM50A (UniProt Q14320) 0.029, FBL (UniProt P22087) -0.01, FBLL1 (UniProt A6NHQ2) -0.121, FBXO3 (UniProt Q9UK99) -0.006, FN3KRP (UniProt Q9HA64) -0.012, FLVCR1 (UniProt Q9Y5Y0) -0.001, FAM8A1 (UniProt Q9UBU6) -0.033, FGFR1OP (UniProt O95684) -0.013, FKBP14 (UniProt Q9NWM8) -0.024, FGF13 isoform 3 (UniProt Q92913) -0.041, FBXO6 (UniProt Q9NRD1) 0.044, FKBP2 (UniProt P26885) -0.026, FAM32A (UniProt Q9Y421) 0.176, FDPS (UniProt P14324) -0.027, FNBP4 isoform 2 (UniProt Q8N3X1) -0.043, FAM98B (UniProt Q52LJ0) 0.052, FARSB (UniProt Q9NSD9) 0.026, FAM98A (UniProt Q8NCA5) -0.049, FAU (UniProt P62861) -0.029, FIS1 (UniProt Q9Y3D6) 0.007, FAM3C (UniProt Q92520) -0.006
